# Reference: PubChem BioAssay AID445 (National Center for Advancing Translational Sciences (NCATS), 2006)
# The other results are listed elsewhere or left out. Shown are side measurements of this screen, not its main read-out; they come without a call. Most of these compounds were active or inconclusive in the main read-out, so they are no random draw. The note in brackets gives the kind of curve behind each potency; many fits are weak.
# Test: IkB Signaling
# Details: ABC-DLBCL IkBa-CBG/CBR dual luciferase ratio (green luciferase fused to IkBa over red control in OCI-Ly3 lymphoma cells), 4 h; measured here: control luc red channel unless noted
# Procedure, shortened: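 Luminescence ratio of IκBα-fused green versus native red beetle luciferase in OCI-Ly3 cells, 4 h post-doxycycline with compound; red signal alone, scaled from basal (0%) to zero light (-100%), flagged nonspecific or cytotoxic effects.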
row,SMILES,AC50
1,O=C1CC(c2ccccc2)Cc2[nH]c(=O)c(-c3nc(-c4cccc(Cl)c4)cs3)cc21 (stereo unspecified),"10 µM [falling, partial curve]"
2,COc1ccc(-c2cc(C(=O)N3CCN(c4ccccc4OC)CC3)c3cc(C(C)C)ccc3n2)cc1,"25.1 µM [falling, partial curve]"
3,Cc1ccc(Cl)cc1N1CCN(C(c2ccc(F)cc2)c2nnc(-c3ccccc3)o2)CC1 (stereo unspecified),"10 µM [falling, partial curve]"
4,COC(=O)c1sccc1S(=O)(=O)N1CCN(c2cccc(C)c2C)CC1,"39.8 µM [falling, single point]"
5,COCCNC(=O)C(c1ccc(C)o1)N(C(=O)c1snc(C(N)=O)c1N)c1ccc(C)cc1 (stereo unspecified),"631 nM [rising, single point] [measured here: IkB-luc green channel]"
6,COc1ccc2nc(NS(=O)(=O)c3ccc(C)cc3)c(Nc3cc(Cl)ccc3OC)nc2c1,"7.94 µM [falling, partial curve]"
7,CCOc1ccc(-c2cc(CCCC(=O)Nc3cccc(OC)c3)no2)cc1,"3.98 µM [rising, full curve] [measured here: IkB-luc green channel]"
8,O=C1CCCC2=C1C1(CCCC1)N=C(Nc1nc3ccccc3o1)N2,"2 µM [falling, full curve]"
9,CCN1C(=S)SC(=O)C1=C1C=C(C)OC(C)=C1,"0.398 µM [rising, full curve]"
10,Cc1ccc(-c2cn3cccc(C)c3n2)cc1NS(=O)(=O)c1ccccc1,"12.6 µM [falling, partial curve]"
11,Cn1nc(-c2ccc(Cl)cc2)c2cc(C(=O)NCC3CCCO3)sc21 (stereo unspecified),"12.6 µM [falling, partial curve]"
12,COc1cccc(-c2nnc(NC(=O)c3ccc(S(=O)(=O)N4CCOCC4)cc3)o2)c1,"7.94 µM [falling, full curve, poor fit]"
13,Cc1ccc(-c2nn3c(C)nnc3c3ccccc23)cc1S(=O)(=O)NCCO,"10 µM [rising, partial curve] [measured here: IkB-luc green channel]"
14,Cc1cccc(N(CC(=O)NC(C)c2ccccc2)S(=O)(=O)c2ccccc2)c1C (stereo unspecified),"12.6 µM [falling, partial curve]"
15,COc1ccc(S(=O)(=O)NCCSc2ccc(C)cc2)cc1OC,"20 µM [falling, partial curve]"
16,CCOc1ccc(-c2cc3c(=O)n(Cc4nc(-c5cccc(OC)c5OC)oc4C)ccn3n2)cc1Cl,"10 µM [rising, partial curve]"

# Not a retest: entries from further up.
row,SMILES,AC50
2,COc1ccc(-c2cc(C(=O)N3CCN(c4ccccc4OC)CC3)c3cc(C(C)C)ccc3n2)cc1,"25.1 µM [falling, partial curve]"
3,Cc1ccc(Cl)cc1N1CCN(C(c2ccc(F)cc2)c2nnc(-c3ccccc3)o2)CC1 (stereo unspecified),"10 µM [falling, partial curve]"
4,COC(=O)c1sccc1S(=O)(=O)N1CCN(c2cccc(C)c2C)CC1,"39.8 µM [falling, single point]"
5,COCCNC(=O)C(c1ccc(C)o1)N(C(=O)c1snc(C(N)=O)c1N)c1ccc(C)cc1 (stereo unspecified),"631 nM [rising, single point] [measured here: IkB-luc green channel]"
